Measurements from article PMC2944808.
These are yes or no findings as the source states them, for the method shown. Some results given as binding are weak or reduced against the parent protein; the word gives no strength.

Amino acid sequences for entries named in this document (tags omitted). Residues count along the entry.
UniProt Q9Z0E2, residues 27-948: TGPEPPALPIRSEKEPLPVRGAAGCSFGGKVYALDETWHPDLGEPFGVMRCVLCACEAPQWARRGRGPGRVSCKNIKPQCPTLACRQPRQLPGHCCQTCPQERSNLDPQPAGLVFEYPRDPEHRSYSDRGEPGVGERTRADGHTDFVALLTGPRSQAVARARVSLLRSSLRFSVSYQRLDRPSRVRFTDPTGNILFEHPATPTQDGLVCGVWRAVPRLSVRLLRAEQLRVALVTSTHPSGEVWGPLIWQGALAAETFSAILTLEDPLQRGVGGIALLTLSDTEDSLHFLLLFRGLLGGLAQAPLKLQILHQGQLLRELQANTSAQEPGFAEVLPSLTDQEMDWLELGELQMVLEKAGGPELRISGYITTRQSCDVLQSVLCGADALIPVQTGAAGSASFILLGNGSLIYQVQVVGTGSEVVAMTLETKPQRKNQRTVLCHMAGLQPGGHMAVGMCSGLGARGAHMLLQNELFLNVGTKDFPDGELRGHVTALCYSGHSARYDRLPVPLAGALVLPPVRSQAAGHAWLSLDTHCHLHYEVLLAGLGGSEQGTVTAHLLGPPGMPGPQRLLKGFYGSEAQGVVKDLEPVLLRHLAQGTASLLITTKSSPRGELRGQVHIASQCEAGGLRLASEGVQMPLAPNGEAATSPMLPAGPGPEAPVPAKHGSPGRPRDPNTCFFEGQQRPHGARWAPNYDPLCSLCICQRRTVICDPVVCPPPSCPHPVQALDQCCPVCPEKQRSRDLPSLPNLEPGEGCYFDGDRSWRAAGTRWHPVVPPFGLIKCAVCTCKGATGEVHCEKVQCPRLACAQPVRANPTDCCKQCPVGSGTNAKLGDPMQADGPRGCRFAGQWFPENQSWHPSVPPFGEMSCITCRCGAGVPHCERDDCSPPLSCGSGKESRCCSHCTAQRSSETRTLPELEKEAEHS

Experiments:
[1] = biological target: Chordin, full-length, mouse (mouse) (UniProt Q9Z0E2); experiment: co-IP; recombinant His6-tagged Chordin and His6-tagged CV2-T5P/I21R mixed, then BMP2; anti-His-tag antibody and protein A Sepharose; not shown; both purified
[2] = biological target: Chordin, full-length, mouse (mouse) (UniProt Q9Z0E2); experiment: co-IP; recombinant His6-tagged Chordin and His6-tagged CV2 ΔClip mixed in 200 µl binding buffer for 1h at 4°C, then BMP2 for 1h at 4°C; precipitated with anti-His-tag antibody and protein A Sepharose; BMP2 detected by blot; both purified
[3] = biological target: Chordin, full-length, mouse (mouse) (UniProt Q9Z0E2); experiment: SPR; BIAcore; BMP2/Chordin binding in the presence of CV2-T5P/I21R; not shown; both purified
[4] = biological target: Chordin, full-length, mouse (mouse) (UniProt Q9Z0E2); experiment: SPR; BIAcore; Chordin immobilised; 500, 1000 and 3000 nM CV2 ΔClip perfused for 120 seconds, then the same concentration of CV2 ΔClip plus 100 nM BMP2; 100 nM BMP2 alone as positive control; both purified

binding [1]: binds
binding [2]: binds
binding [3]: binds
binding [4]: binds
B1: BMP2, human (ligand, UniProt P12643 283-396)
chain: QAKHKQRKRLKSSCKRHPLYVDFSDVGWNDWIVAPPGYHAFYCHGECPFPLADHLNSTNHAIVQTLVNSVNSKIPKACCVPTELSAISMLYLDENEKVVLKNYQDMVVEGCGCR
